PubChem BioAssay AID504804 | Drosophila RNAi Screening Center, 2011
Assay: 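dsRNAs that improve Kc cell survival under doxorubicin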 (primary screen). Cells: Drosophila Kc cells. Reagents: long dsRNA against Drosophila genes, 0.5 µg dsRNA per well. Time to read-out: 96 h (48 h knock-down, then 48 h drug). Treatment: doxorubicin 5 µg/ml for 48 h, added 48 h after dsRNA. Detection: 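Luminescent ATP counts per replicate, not normalised, reflecting viable cells after 48 h dsRNA knock-down followed by 48 h of 5 µg/ml doxorubicin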. Scale: raw ATP luminescence: higher = more viable cells, protection from doxorubicin. Active means: 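Active when both duplicate wells lie at least 2 SD above the plate mean and protection is confirmed by rescreening and independent dsRNAs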.
In all, the deposit lists about 19,000 reagents; shown is a random part of those with a known target gene and a result. Over the whole deposit, 47 (0.25%) got an active call. 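Signals are raw, not normalised; exact z-scores behind calls not deposited; actives needed confirmation, so some wells reaching 2 SD are inactive.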 A plus sign joins genes that one reagent is predicted to hit.

gene,dsRNA,"raw ATP luminescence, replicate 1","raw ATP luminescence, replicate 2",Call
CG15914,DRSC19739,3.43e5,3.22e5,inactive
CG13907,DRSC08377,60413,84437,inactive
CG30495,DRSC06703,36670,59120,inactive
Ublcp1,DRSC14149,43197,32687,inactive
CCDC151,DRSC10131,89130,67843,inactive
CG2082,DRSC12125,75660,25463,inactive
Setx,DRSC10859,71860,84517,inactive
CG15909,DRSC04977,66997,62663,inactive
Hr78,DRSC11866,17557,20967,inactive
CG4537,DRSC02756,22973,49360,inactive
CG15408,DRSC00423,38160,37647,inactive
GXIVsPLA2,DRSC10243,39517,39303,inactive
Brms1,DRSC19896,3.94e5,2.91e5,inactive
CG4497,DRSC02754,1.16e5,75367,inactive
Fancm,DRSC16348,47797,48030,inactive
COX4,DRSC02091,81080,62273,inactive
bor,DRSC16915,60340,79360,inactive
Jon44E,DRSC07216,32993,81367,inactive
CG7903,DRSC16338,62330,54050,inactive

Targets listed so far whose target name starts with B or b (2):
gene,dsRNA,"raw ATP luminescence, replicate 1","raw ATP luminescence, replicate 2",Call
Brms1,DRSC19896,3.94e5,2.91e5,inactive
bor,DRSC16915,60340,79360,inactive

The results go on:
gene,dsRNA,"raw ATP luminescence, replicate 1","raw ATP luminescence, replicate 2",Call
Adsl,DRSC15500,58253,43713,inactive
pira,DRSC19494,3.22e5,3.17e5,inactive
CG9518,DRSC20194,3.50e5,3.22e5,inactive
inaC,DRSC07632,62537,69880,inactive
CG42694,DRSC03955,78100,69910,inactive
CG42758,DRSC10021,65087,54423,inactive
CG14000 + bchs,DRSC02333,34737,42780,inactive
CG4286,DRSC04459,51153,44630,inactive
TwdlQ,DRSC14745,23070,25970,inactive
mEFTu1,DRSC06959,68943,53137,inactive
CG34169,DRSC01579,3.15e5,2.71e5,inactive
CG13921,DRSC08390,60017,47297,inactive
Src64B,DRSC08700,86003,97390,inactive
CR18166,DRSC17260,2.10e5,2.12e5,inactive
CR18166,DRSC18147,44870,54760,inactive
CG34286,DRSC13372,2.42e5,2.68e5,inactive
CG14070,DRSC02373,48873,87080,inactive
Slimp,DRSC13656,1.78e5,2.06e5,inactive
CR18275,DRSC18151,48310,55430,inactive
wam,DRSC15171,84250,85770,inactive
CG7402,DRSC10839,49343,47603,inactive
T3dh + pgc,DRSC04659,70547,54777,inactive
CG9806,DRSC18444,3.49e5,3.46e5,inactive
Ir92a,DRSC15111,45200,46300,inactive
CG32845,DRSC07867,1.66e5,1.42e5,inactive
CG12851,DRSC04131,31987,42927,inactive
CG9114,DRSC20155,2.30e5,2.47e5,inactive
CG4362,DRSC15567,40000,36260,inactive
CG5357 (retired record),DRSC04497,42370,46697,inactive
bsk,DRSC03499,98527,55430,inactive
CG17684,DRSC07724,1.92e5,1.76e5,inactive
CG17684,DRSC21166,4.08e5,3.50e5,inactive
mdu,DRSC19860,1.02e5,1.98e5,inactive
Pfdn4,DRSC09761,78573,94133,inactive
unc-4,DRSC20381,3.33e5,3.15e5,inactive
CG17571,DRSC01768,69017,66443,inactive
CG17571,DRSC03755,59453,70020,inactive
Vha55,DRSC16896,57563,18533,inactive
